Measurements: paper doi:10.1101/322701 (bioRxiv, 2018)

What was measured:
[1] = target: T1, N-terminally strep-tagged GrgA (Chlamydia trachomatis) (UniProt O84512); assay: pull-down
T1 sequence: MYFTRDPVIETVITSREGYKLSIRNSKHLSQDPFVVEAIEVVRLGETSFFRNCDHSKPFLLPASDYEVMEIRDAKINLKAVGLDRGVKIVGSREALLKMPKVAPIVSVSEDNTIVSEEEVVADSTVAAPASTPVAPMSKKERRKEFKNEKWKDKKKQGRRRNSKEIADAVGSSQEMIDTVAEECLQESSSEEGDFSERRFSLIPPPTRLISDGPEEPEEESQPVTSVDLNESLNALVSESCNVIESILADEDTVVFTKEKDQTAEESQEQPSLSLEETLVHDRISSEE

[2] = target: T2, Biotinylated NH-GrgA (Chlamydia trachomatis) (UniProt O84512); assay: BLI
T2 sequence (chain, biotin (EZ-Link Sulfo-NHS-LC-Biotin; sites not stated)): T1 sequence

[3] = target: T3, NH-GrgAΔ114-137 (Chlamydia trachomatis) (UniProt O84512); assay: BLI
T3 sequence: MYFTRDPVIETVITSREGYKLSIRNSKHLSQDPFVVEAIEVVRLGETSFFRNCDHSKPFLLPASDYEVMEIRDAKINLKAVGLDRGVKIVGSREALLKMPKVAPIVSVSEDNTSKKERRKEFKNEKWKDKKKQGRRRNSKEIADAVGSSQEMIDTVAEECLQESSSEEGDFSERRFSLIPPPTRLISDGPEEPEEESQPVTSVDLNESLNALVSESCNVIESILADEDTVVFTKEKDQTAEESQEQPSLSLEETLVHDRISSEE

[4] = target: N-terminally strep-tagged σ^28 (C. trachomatis); assay: pull-down

For “N-terminally poly-His-tagged C. trachomatis σ^28”, the binding [1] was “binds” and the binding [2] was “binds”.

In the case of “N-terminally strep-tagged σ^28 (C. trachomatis)”, the binding [3] is reported as “binds”.

In the case of “NH-σ^28ΔNL (C. trachomatis) (domain or fragment)”, the binding [1] is reported as “no binding (tested: 5 μg)”.

For NH-σ^28ΔR2 (C. trachomatis), the binding [1] was “no binding (tested: 5 μg)”.

In the case of NH-σ^28ΔR3 (C. trachomatis), the binding [1] is reported as “binds weakly”.

With NH-σ^28ΔR4 (C. trachomatis) the binding [1] was “binds weakly”.

B1: NH-GrgAΔ1-64 (domain or fragment, UniProt O84512 65-288)
chain: DYEVMEIRDAKINLKAVGLDRGVKIVGSREALLKMPKVAPIVSVSEDNTIVSEEEVVADSTVAAPASTPVAPMSKKERRKEFKNEKWKDKKKQGRRRNSKEIADAVGSSQEMIDTVAEECLQESSSEEGDFSERRFSLIPPPTRLISDGPEEPEEESQPVTSVDLNESLNALVSESCNVIESILADEDTVVFTKEKDQTAEESQEQPSLSLEETLVHDRISSEE
For B1, the binding [4] was “binds”.

B2: NH-GrgAΔ114-137 (protein, UniProt O84512)
chain: T3 sequence
With B2 the binding [4] was “binds”.

B3: NH-GrgAΔ114-165 (protein, UniProt O84512)
chain: MYFTRDPVIETVITSREGYKLSIRNSKHLSQDPFVVEAIEVVRLGETSFFRNCDHSKPFLLPASDYEVMEIRDAKINLKAVGLDRGVKIVGSREALLKMPKVAPIVSVSEDNTIADAVGSSQEMIDTVAEECLQESSSEEGDFSERRFSLIPPPTRLISDGPEEPEEESQPVTSVDLNESLNALVSESCNVIESILADEDTVVFTKEKDQTAEESQEQPSLSLEETLVHDRISSEE
With B3 the binding [4] was “no binding (tested: 5 μg)”.

B4: N-terminally His-tagged GrgA, full length (protein, UniProt O84512 1-288)
chain: T1 sequence
With B4 the binding [4] was “binds”.

Results are given in words; binding and its absence hold for the method and conditions named. Binding calls can cover weak binding; strength is not graded here. For some assays here: In cells and extracts the contact can be indirect. For some assays here: Sequences can lack the tags named with a protein.
